Data taken from patent US20120151612A1, “NON-SURGICAL APPROACH TO PREVENT AND CORRECT CRANIOFACIAL MALFORMATIONS DURING DEVELOPMENT” (UNIVERSITY OF SOUTHERN CALIFORNIA, priority 2010, published 2012).
No constants are given. Whether binding was seen depends on the method and setting. Binding seen in cells or lysates may run through a third protein. Some entries that bind do so weakly or less than the wild type.

Legend:
[1] = biological target: T1, Tgf-βRIII (transforming growth factor, beta receptor III) (mouse) (UniProt O88393); assay: legend of FIG. 12e, a schematic summing up the co-IP and cross-linking of FIG. 12b, c
T1 sequence (looked up): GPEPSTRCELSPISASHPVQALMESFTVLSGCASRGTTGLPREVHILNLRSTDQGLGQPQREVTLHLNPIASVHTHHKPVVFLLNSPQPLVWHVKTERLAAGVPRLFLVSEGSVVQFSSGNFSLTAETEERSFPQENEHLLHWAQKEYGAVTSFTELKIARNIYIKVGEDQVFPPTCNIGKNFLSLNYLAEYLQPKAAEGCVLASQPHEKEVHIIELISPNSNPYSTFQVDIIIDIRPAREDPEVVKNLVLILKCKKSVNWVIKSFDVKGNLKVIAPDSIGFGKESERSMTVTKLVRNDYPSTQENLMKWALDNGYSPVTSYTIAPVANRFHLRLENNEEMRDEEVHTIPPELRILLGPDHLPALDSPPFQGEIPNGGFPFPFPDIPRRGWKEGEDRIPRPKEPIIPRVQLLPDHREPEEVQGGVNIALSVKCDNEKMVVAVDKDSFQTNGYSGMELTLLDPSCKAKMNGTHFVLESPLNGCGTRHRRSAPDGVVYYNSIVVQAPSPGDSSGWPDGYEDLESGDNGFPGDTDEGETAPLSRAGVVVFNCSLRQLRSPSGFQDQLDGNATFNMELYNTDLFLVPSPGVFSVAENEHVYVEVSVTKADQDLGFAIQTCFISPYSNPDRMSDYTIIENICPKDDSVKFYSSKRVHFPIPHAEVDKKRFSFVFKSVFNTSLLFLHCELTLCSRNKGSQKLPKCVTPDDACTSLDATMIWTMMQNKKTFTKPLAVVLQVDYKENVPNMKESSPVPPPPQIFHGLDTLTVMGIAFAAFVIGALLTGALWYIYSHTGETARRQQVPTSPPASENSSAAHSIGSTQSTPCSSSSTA

[2] = biological target: T1, Tgf-βRIII (transforming growth factor, beta receptor III) (mouse); assay: legend of FIG. 24e, a schematic summing up the co-IP and cross-linking of FIG. 24b, c
[3] = biological target: T1, Tgf-βRIII (transforming growth factor, beta receptor III) (mouse); assay: conclusion from co-immunoprecipitation and cross-linking in MEPM cells; member of one complex
[4] = biological target: T1, Tgf-βRIII (transforming growth factor, beta receptor III) (mouse); assay: cross-linking and co-immunoprecipitation, MEPM cells and extracts (control vs Tgfbr2fl/fl;Wnt1-Cre)
[5] = biological target: T1, Tgf-βRIII (transforming growth factor, beta receptor III) (mouse); assay: conclusion from co-immunoprecipitation and cross-linking in MEPM cells (Example 3); member of one complex

Measured: binding

B1: Tgf-β2 (transforming growth factor, beta 2) (ligand, mouse, UniProt P27090 303-414, looked up)
chain: ALDAAYCFRNVQDNCCLRPLYIDFKRDLGWKWIHEPKGYNANFCAGACPYLWSSDTQHTKVLSLYNTINPEASASPCCVSQDLEPLTILYYIGNTPKIEQLSNMIVKSCKCS
binds: all assays above
